Reference: PubChem BioAssay (NCATS)
The inconclusive results got no clear call from the source; some entries with a clear call stand among them for comparison. Potencies beside an inconclusive call are fits to weak or partial responses and may not hold up. Active and inactive are the calls of the source. Calls come from the whole dose curve; as a rule, active = well fitted cell-killing curve with a large enough effect; inconclusive = small, poorly fitted or top-dose-only effect, or effect the other way; inactive = no such curve, though single readings can be large or run the other way.

Experiment: Quantitative High-Throughput drug screen in 47 multiple myeloma cell lines against the NCATS MIPE library collection: KMS28PE_JCRB cell viability assay (AID 1918983); note: nearly all actives have a fitted effect of over 35% in size
Conditions: KMS28PE multiple myeloma viability, CellTiter-Glo ATP, 48 h; series mostly up to 45.8 µM; viability, % of DMSO control: at the top concentration
Excerpt: PI: Beverly A. Mock Ph.D.
Laboratory of Cancer Biology and Genetics,
Center for Cancer Research, National Cancer Institute,
National Institute of Health, Bethesda, Maryland
Drug resistance and disease progression are common in multiple myeloma (MM) patients, underscoring the need for new therapeutic combinations. […] We hypothesized that effective combinations would reduce MYC expression and enhance p16 activity. […] These preclinical data identify potentially useful drug combinations for evaluation in drug-resistant MM and reveal potential mechanisms of combined drug sensitivity.
Described herein is the primary MIPE qHTS used to cherrypick compounds. Validated compounds were then further tested for potential synergistic activiy.
[1] Peat TJ, Gaikwad SM, Dubois W, Gyabaah-Kessie N, Zhang S, Gorjifard S, Phyo Z, Andres M, Hughitt VK, Simpson RM, Miller MA, Girvin AT, Taylor A, Williams D, D'Antonio N, Zhang Y, Rajagopalan A, Flietner E, Wilson K, Zhang X, Shinn P, Klumpp-Thomas C, McKnight C, Itkin Z, Chen L, Kazandijian D, Zhang J, Michalowski AM, Simmons JK, Keats J, Thomas CJ, Mock BA. Drug combinations identified by high-throughput screening promote cell cycle transition and upregulate Smad pathways in myeloma. Cancer Lett. 2023 Aug 1;568:216284. doi: 10.1016/j.canlet.2023.216284. Epub 2023 Jun 24. PMID: 37356470; PMCID: PMC10408729.
SEQUENCE No. (e.g., 1, 2, 3, etc.); […] (e.g., Cells, Incubation, Reagent, etc.); VALUE and DESCRIPTION.
1; Cells; 5 uL; white, solid bottom 1536-well Greiner assay plate.
2; Compounds; 23 nL; Kalypsis pin tool (Wako USA) equipped with a 1536-well pin head to transfer to the assay plates.
3; Incubation; 48 hours; 37C incubation.
4; Reagent;5uL; CellTiter Glo (Promega).
5; Detector; 425V; Luminescence; Viewlux PerkinElmer.
NOTES (numbers refer to Sequence numbers above)
1. The cell-based screening methods employed in this study were like those previously published. Briefly, the corresponding myeloma cell lines were screened in 1,536-well plates with 500 cells, 5-uL per well for inhibition of cell viability (assessed by measuring ATP levels with CellTiterGlo).
2. NCATS MIPE 4.0 library of approved and investigational drugs were added using the Kalypsis pin tool. Wells treated with DMSO only for 100% viability and media only for 0% viability were used as controls.
3. The assay plates were covered and incubated for 48 hours in a 37C, 5% CO2 incubator with controlled humidity.
4. After 48 hours, CellTilter-GloTM luminescent substrate mix (Promega) reagent was added to the assay plate and plates we incubated for 5 min at room temperature.
5. Signal was measured as median relative luminescence units on a ViewLux (PerkinElmer) multiplate reader.
[1] Heske CM, Davis MI, Baumgart JT, Wilson K, Gormally MV, Chen L, Zhang X, Ceribelli M, Duveau DY, Guha R, Ferrer M, Arnaldez FI, Ji J, Tran HL, Zhang Y, Mendoza A, Helman LJ, Thomas CJ. Matrix Screen Identifies Synergistic Combination of PARP Inhibitors and Nicotinamide Phosphoribosyltransferase (NAMPT) Inhibitors in Ewing Sarcoma. Clin Cancer Res. 2017 Dec 1;23(23):7301-7311. doi: 10.1158/1078-0432.CCR-17-1121. Epub 2017 Sep 12. PMID: 28899971; PMCID: PMC6636827.
Potency is the fitted concentration of half-maximal effect.

SMILES | Potency | viability, % of DMSO control
NC(=O)N1c2ccccc2CC(=O)c2ccccc21 | inconclusive: 0.0017 µM [rising, full curve] | 
COc1cc(C(C)C)c2c(c1)S(=O)(=O)N(COc1cc(=O)n3cccc(OCCN4CCCCC4)c3n1)C2=O | inconclusive: 33.2 µM [cytotoxic, single point] | 
CC(C)c1cc(C(C)C)c(CC(=O)NS(=O)(=O)Oc2c(C(C)C)cccc2C(C)C)c(C(C)C)c1 | active: 23.5 µM | 
O=C(CCCCCCC(=O)Nc1ccccc1)NO | active: 3.72 µM | 
COc1cc2nccc(Oc3ccc(NC(=O)C4(C(=O)Nc5ccc(F)cc5)CC4)cc3)c2cc1OC | inconclusive: 7.43 µM [cytotoxic, partial curve, poor fit] | 
NC(=O)c1cccc2cn(-c3ccc([C@@H]4CCCNC4)cc3)nc12 | inconclusive: 0.526 µM [rising, full curve] | 
CC1(C)CNc2cc(NC(=O)c3cccnc3NCc3ccncc3)ccc21 | inconclusive: 13.2 µM [cytotoxic, partial curve, poor fit] | 
Cn1c(Nc2ccc(C(F)(F)F)cc2)nc2cc(Oc3ccnc(-c4ncc(C(F)(F)F)[nH]4)c3)ccc21 | active: 23.5 µM | 
Cc1cccc(C=NNc2cc(N3CCOCC3)nc(OCCc3ccccn3)n2)c1 | inconclusive: 37.2 µM [cytotoxic, single point] | 
CCCCOc1ccc(CC(=O)NO)cc1 | active: 20.9 µM | 
C[C@](Cc1c[nH]c2ccccc12)(NC(=O)OC1C2CC3CC(C2)CC1C3)C(=O)NC[C@H](NC(=O)CCC(=O)O)c1ccccc1 (stereo not given in full) | inconclusive: 1.18 µM [rising, partial curve, poor fit] | 
Nc1nc(Cl)nc2c1ncn2[C@H]1C[C@H](O)[C@@H](CO)O1 | inconclusive: 1.66 µM [cytotoxic, full curve] | 
NC1(c2ccc(-c3nc4ccn5c(=O)[nH]nc5c4cc3-c3ccccc3)cc2)CCC1 | active: 6.62 µM | 
C=CCNc1c(O)cc2c(O)c1C[C@@H](C)C[C@H](OC)[C@@H](O)[C@@H](C)C=C(C)[C@H](OC(N)=O)[C@@H](OC)C=CC=C(C)C(=O)N2 | active: 0.418 µM | 
CC(C)OC(=O)C1=CN(C(=O)c2ccc(F)c(F)c2)CC(C)(C)c2c1[nH]c1ccccc21 | inconclusive: 0.0019 µM [rising, full curve, poor fit] | 
CN1C[C@H]2c3ccccc3Oc3ccc(Cl)cc3[C@@H]2C1 |  | inactive: 102%
COc1ccc(C=Cc2cc(OC)c(OC)c(OC)c2)cc1O | inconclusive: 0.0023 µM [cytotoxic, full curve] | 
CC[C@H](Nc1ncnc2nc[nH]c12)c1nc2cccc(F)c2c(=O)n1-c1ccccc1 | inconclusive: 26.4 µM [cytotoxic, single point] | 
Cc1cc(Nc2cc(NC(=O)c3c(Cl)cccc3Cl)ccn2)nc(N)n1 | active: 26.4 µM | 
COc1cc2ncnc(Nc3ccc(F)c(Cl)c3)c2cc1OCCCN1CCOCC1 | active: 42.9 µM | 

SMILES | Potency | viability, % of DMSO control
CC(=O)Nc1sc2c(c1-c1nc3ccccc3s1)CNC2 | active: 20.9 µM | 
CN(C)CC(C)(C)CNc1nn2c(-c3ccccc3)nnc2cc1C1CCC1 | inconclusive: 37.2 µM [cytotoxic, single point] | 
C[C@H](NC(=O)Cc1cc(F)cc(F)c1)C(=O)N[C@@H]1C(=O)N(C)c2ccccc2-c2ccccc21 |  | inactive: 150%
Cc1cc(Nc2nc(N[C@@H](C)c3ncc(F)cn3)ncc2Cl)n[nH]1 | active: 20.9 µM | 
CC(O)(C#Cc1ccc2c(c1)N(c1nc(N)ncc1Cl)CC2)c1nccs1 (stereo not given) | inconclusive: 29.6 µM [cytotoxic, single point] | 
Cc1cncc2cccc(S(=O)(=O)N3CCCN(C(=O)CN)C[C@@H]3C)c12 | active: 18.7 µM | 
CCN(CC)CCNC(=O)c1c(C)[nH]c(C=C2C(=O)Nc3ccc(F)cc32)c1C | active: 5.4 µM | 
Cc1ccc2nc(NC(=O)CSc3nc4c(c(=O)n3-c3ccccc3)SCC4)sc2c1 | active: 23.5 µM | 
C[C@@H]1CN(CC(=O)Nc2ccc3c(c2)Cc2cccc(-c4cc(=O)cc(N5CCOCC5)o4)c2S3)C[C@H](C)O1 | active: 9.35 µM | 
O=C1NC(=O)[C@@H](c2cn3c4c(cccc24)CCC3)[C@H]1c1c[nH]c2ccccc12 | active: 0.833 µM | 
COC(=O)C=CC(=O)OC |  | inactive: 172%
Cc1cnc(-c2cnc(NCCNc3ccc(C#N)cn3)nc2-c2ccc(Cl)cc2Cl)[nH]1 | inconclusive: 0.0332 µM [rising, full curve] | 
O=C(NCc1ccccc1)[C@H](Cc1ccccc1)NC(=O)[C@@H]1O[C@@H]1C(=O)NCCc1ccc(O)cc1 |  | inactive: 128%
CS(=O)(=O)c1cccc(CNc2nc(Nc3ccc4c(c3)CCC(=O)N4)ncc2C(F)(F)F)c1 | active: 23.5 µM | 
C[C@@H]1C[C@H]2[C@@H]3CCC4=CC(=O)C=C[C@]4(C)[C@@]3(Cl)[C@@H](O)C[C@]2(C)[C@@]1(OC(=O)c1ccco1)C(=O)CCl | inconclusive: 33.2 µM [cytotoxic, single point] | 
COc1cc2c(Nc3ccc(Cl)c(Cl)c3F)ncnc2cc1OCC1C[C@@H]2CN(C)C[C@H]2C1 | active: 16.6 µM | 
Cn1cc(-c2cnn3c(N)c(Br)c([C@H]4CCCNC4)nc23)cn1 | active: 13.2 µM | 
Nc1cccc(-c2cc3c(Oc4cccc(O)c4)ncnc3[nH]2)c1 | inconclusive: 33.2 µM [cytotoxic, single point] | 
Cc1ccccc1C(OCCN(C)C)c1ccccc1 (stereo not given) | inconclusive: 14.8 µM [cytotoxic, partial curve, poor fit] | 
Cc1cnc(NC(=O)Nc2cc(Br)c(C)cc2OC[C@@H]2CNCCO2)cn1 | active: 13.2 µM | 

Entries listed so far that have a CF3 group (2):
SMILES | Potency | viability, % of DMSO control
Cn1c(Nc2ccc(C(F)(F)F)cc2)nc2cc(Oc3ccnc(-c4ncc(C(F)(F)F)[nH]4)c3)ccc21 | active: 23.5 µM | 
CS(=O)(=O)c1cccc(CNc2nc(Nc3ccc4c(c3)CCC(=O)N4)ncc2C(F)(F)F)c1 | active: 23.5 µM | 
